# Reference: PubChem BioAssay AID2551 (National Center for Advancing Translational Sciences (NCATS), 2010)
# Sequences of proteins named here, by UniProt entry; tags and fusion partners are left off. A change or cut given only in a name is not applied to a line headed by its entry.
# UniProt P51450: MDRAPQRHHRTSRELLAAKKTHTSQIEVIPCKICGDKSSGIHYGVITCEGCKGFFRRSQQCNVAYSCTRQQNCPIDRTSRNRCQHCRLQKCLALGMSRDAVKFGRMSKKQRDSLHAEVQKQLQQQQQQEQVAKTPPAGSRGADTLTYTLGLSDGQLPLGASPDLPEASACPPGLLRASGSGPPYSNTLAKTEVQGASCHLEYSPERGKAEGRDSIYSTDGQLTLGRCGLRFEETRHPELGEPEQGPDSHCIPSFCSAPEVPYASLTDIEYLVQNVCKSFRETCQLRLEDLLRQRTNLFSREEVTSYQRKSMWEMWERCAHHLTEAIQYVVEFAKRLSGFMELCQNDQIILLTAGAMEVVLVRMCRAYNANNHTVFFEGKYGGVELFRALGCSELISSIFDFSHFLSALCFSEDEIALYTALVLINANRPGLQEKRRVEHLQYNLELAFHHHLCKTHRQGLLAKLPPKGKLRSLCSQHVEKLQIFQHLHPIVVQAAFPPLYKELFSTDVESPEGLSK
# Values joined by “and” are separate entries in the source; they are usually repeats but may differ in a detail not shown here. Equal entries are not always repeated. The campaign covered roughly 310,000 compounds. About 17,000 (5.5%) were called active. Inconclusive means that the source gave no clear call. Such entries were picked first, then a sample of the others. Calls come from the whole dose curve; as a rule, active = well fitted inhibition curve with a large enough effect; inconclusive = small, poorly fitted or top-dose-only effect, or effect the other way; inactive = no such curve, though single readings can be large or run the other way. Where the call is inconclusive, the potency comes from a doubtful curve fit.
# Target: Nuclear receptor ROR-gamma (Mus musculus) (UniProt P51450)
# Test: qHTS for inhibitors of ROR gamma transcriptional activity; note: nearly all actives have a fitted effect of over 60% in size
# Settings: Drosophila S2 Gal4-RORgamma UAS-luciferase reporter, 20 h; series mostly up to 53.6 µM
# Outline: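 Stably transfected Drosophila Schneider cells are the test system, with ROR gamma fused to Gal4 and luciferase under UAS control; luminescence is read after 20 hr of 700 uM copper sulfate induction at ambient temperature.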
# Potency is the fitted concentration of half-maximal effect.
row,SMILES,Potency
1,Cc1cccc(NC(=O)CCN2C(=O)c3ccccc3S2(=O)=O)c1C,"inconclusive: 35.5 µM [activator, single point]"
2,CCOC(=O)N1CCN(Cc2nc3c(c(=O)n(C)c(=O)n3C)n2Cc2ccc(F)cc2)CC1,"inconclusive: 15.8 µM [activator, single point]"
3,CC(=O)C(Cc1ccccc1)NC(=O)CCl (centres undefined),inactive
4,Nc1nc(CSC(=S)N2CCCCC2)nc(Nc2ccccc2)n1,"inconclusive: 7.94 µM [inhibitor, partial curve]"
5,Cn1c(N/N=C/c2ccccc2)nc2sc3c(c2c1=O)CCC3,active: 1.58 µM
6,CN(C)c1ccc(/C=C/c2nnnn2-c2ccccc2)cc1,"inconclusive: 0.282 µM [activator, partial curve]"
7,O=C(O)c1ccc2c(c1)C(=O)N([C@H](Cc1ccc(O)cc1)C(=O)O)C2=O,inactive
8,CCOC(=O)N1CCC(NC(=O)c2cccc3c2C(=O)N(c2ccc(OC)cc2)C3)CC1,"inconclusive: 3.55 µM [inhibitor, single point]"
9,Cc1c(C(=O)OCC(=O)Nc2ccc(C(N)=O)cc2)cccc1[N+](=O)[O-],"inconclusive: 12.6 µM [activator, single point]"
10,O=C(CCc1cnccn1)NC1CCCc2c1cnn2-c1ccc(F)cc1F (centres undefined),"inconclusive: 7.08 µM [activator, partial curve]"
11,COc1cccc(/C=N/n2cnc3c(cnn3-c3ccccc3)c2=O)c1,"inconclusive: 8.91 µM [activator, partial curve]"
12,Cc1cccc(-n2cnc3cc(C(=O)N4CCCCC4)ccc32)c1,"inconclusive: 35.5 µM [activator, single point]"
13,CCOc1ccc(C(C)=O)cc1CSC(=N)N,inactive
14,O=C(c1ccc(Cn2cc(Br)cn2)o1)N1N=C(C(F)F)CC1(O)C(F)F (centres undefined),active: 11.2 µM
15,O=C(/C=C/c1c(F)cccc1Cl)c1ccc(F)cc1,"inconclusive: 35.5 µM [inhibitor, single point]"
16,O=C(CCCCCn1c(=S)[nH]c2cc3c(cc2c1=O)OCO3)N1CCN(C2CCCCC2)CC1,"inconclusive: 35.5 µM [inhibitor, single point]"
17,O=C(N/N=C/c1cc(Cl)cc([N+](=O)[O-])c1O)NC12CC3CC(CC(C3)C1)C2,active: 3.98 µM
18,O=C(NCCc1ccccc1)C1CCN(S(=O)(=O)c2ccc(Br)s2)CC1,"inconclusive: 35.5 µM [activator, single point]"
19,Cc1ccnc(SCC(=O)c2ccc(Br)cc2)c1C#N,"inconclusive: 17.8 µM [activator, partial curve]"
20,Cc1cc(OCC(=O)NN2C(=O)c3ccccc3C2=O)ccc1Cl,inactive
21,CCOC(=O)c1ccccc1NC(=O)c1c(F)c(F)c(F)c(F)c1F,"inconclusive: 7.94 µM [inhibitor, partial curve]"
22,COc1ccc(S(=O)(=O)N(Cc2nc3ccccc3c(=O)[nH]2)C2CCCC2)cc1,"inconclusive: 35.5 µM [inhibitor, single point]"
23,FC(F)(F)c1cc(Oc2ccccc2Cl)nc(-c2ccccn2)n1,"inconclusive: 17.8 µM [inhibitor, single point]"

row,SMILES,Potency
1,COc1cc(N/C(N)=N/c2nc(C)cc(C)n2)c(OC)cc1Cl,"inconclusive: 12.6 µM [activator, single point]"
2,COc1ccccc1NC(=O)c1cc2cc(Br)ccc2cc1O,"inconclusive: 35.5 µM [inhibitor, single point]"
3,CCC1CSC(Nc2ccc(C(=O)/C=C/c3ccc(Oc4ccccc4)cc3)cc2)=N1 (centres undefined),active: 15.8 µM
4,CNC(=O)CC1C(=O)N(c2ccc(F)cc2)C(=S)N1NC(=O)c1ccc(Cl)cc1 (centres undefined),"inconclusive: 35.5 µM [inhibitor, single point]"
5,Cc1ccc(NC(=S)N=Nc2c(O)n(C)c3ccc(S(=O)(=O)N4CCOCC4)cc23)cc1C,active: 0.708 µM
6,CCN(CC)CCCNc1nc2cc(OC)c(OC)cc2c2nc(-c3ccccc3)nn12,active: 10 µM
7,CC(C)C[C@H](NC(=O)c1[nH]cnc1C(=O)N[C@H](C)c1ccccc1)C(=O)OC(C)(C)C,active: 5.01 µM
8,S=C(NC1CCCCC1)N1CCc2[nH]c3ccccc3c2C1,inactive
9,CCOC(=O)C1CCC(CN(Cc2ccccc2C)S(=O)(=O)c2ccc([N+](=O)[O-])cc2)CC1 (centres undefined),"inconclusive: 31.6 µM [activator, single point]"
10,Cc1ccc(C(=O)NC(=C(Cl)Cl)S(=O)(=O)c2ccc(C)cc2)cc1,"inconclusive: 3.16 µM [inhibitor, single point]"
11,O=C(Nc1nnc(-c2ccncc2)o1)c1ccccc1F,"inconclusive: 7.08 µM [inhibitor, full curve, poor fit]"
12,O=C(N/N=C/c1cccnc1)c1cc(O)c(O)c(O)c1,inactive
13,Cc1ccc(/C=N/NC(=O)CSc2nc3ccccc3c(=O)n2-c2ccccc2C)s1,"inconclusive: 3.16 µM [inhibitor, single point]"
14,CNC(=S)NNC(=O)c1ccc2c(c1)OCO2,"inconclusive: 12.6 µM [inhibitor, single point]"
15,CCC(=O)c1ccc(OCC(=O)N(C)CC(=O)Nc2cccc(F)c2)cc1,"inconclusive: 35.5 µM [activator, single point]"
16,CCc1ccc(C(=O)Nc2cccnc2Oc2ccc(Cl)cc2)cc1,"inconclusive: 12.6 µM [activator, partial curve]"
17,N/C(=N\OC(=O)c1cccc([N+](=O)[O-])c1)c1ccccn1,"inconclusive: 35.5 µM [activator, single point]"
18,NNC(=O)CN1CCN(c2ncc(C(F)(F)F)cc2Cl)CC1,inactive
19,CCOC(=O)c1ccc(-c2n[nH]c(=O)c3ccccc23)cc1,inactive
20,Cc1onc(-c2ccccc2)c1C(=O)Nc1nnc(COc2ccc(Cl)cc2)s1,"inconclusive: 25.1 µM [inhibitor, single point]"
21,Oc1ccc(-c2nc(-c3ccc(F)cc3)c(-c3ccncc3)[nH]2)cc1,inactive
22,O=C(CSc1ccsc1[N+](=O)[O-])N1CCN(c2ccc(Cl)cc2)CC1,"inconclusive: 0.0089 µM [activator, full curve, poor fit]"
23,Cc1ccc(O)c(CNc2nc3ccccc3[nH]2)c1,"inconclusive: 12.6 µM [activator, single point]"

row,SMILES,Potency
1,CN(C)C=NC(=O)c1cc(C(=O)c2ccc(C(C)(C)C)cc2)c[nH]1,"inconclusive: 2.82 µM [activator, full curve]"
2,CCC(C(=O)NC1CCCC1)n1nc(C)n2c(cc3occc32)c1=O (centres undefined),inactive
3,CCN(CCNC(=O)C1CCN(Cc2nc(-c3ccc(Cl)cc3)oc2C)CC1)c1ccccc1,"inconclusive: 22.4 µM [inhibitor, single point]"
4,Fc1ccc(Br)cc1C1C=C(c2ccc(Br)s2)Nc2ncnn21 (centres undefined),active: 35.5 µM
5,COc1cc2[nH]c(=O)n(C3CCCCC3)c(=O)c2cc1OC,"inconclusive: 35.5 µM [activator, single point]"
6,COc1ccc2c(c1)OCC(Cc1ccc(OC)c(OC)c1)C2O (centres undefined),"inactive and inconclusive: 17.8 µM [activator, single point]"
7,O=C(NCCc1c[nH]c2ccccc12)c1ccc(S(=O)(=O)NCc2ccco2)cc1,"inconclusive: 12.6 µM [activator, partial curve]"
8,COc1ccc(/C=N/NC(=O)c2cccc([N+](=O)[O-])c2)cc1OC(=O)c1ccccc1,"inconclusive: 22.4 µM [inhibitor, single point]"
9,Cn1c(=O)c(C(=O)CN2CCCCCC2)c(N)n(Cc2ccccc2)c1=O,inactive
10,COc1cc(/C=C/c2sc3ccccc3[n+]2CCCS(=O)(=O)[O-])ccc1O,"inconclusive: 31.6 µM [inhibitor, single point]"
11,COc1ccc(NC(=S)NC(NC(=O)C(C)C)C(Cl)(Cl)Cl)c([N+](=O)[O-])c1 (centres undefined),active: 17.8 µM
12,Cc1nn(C)c(Cl)c1NC(=O)OCc1ccc(Cl)cc1Cl,"inconclusive: 3.16 µM [activator, single point]"
13,CS(=O)(=O)N1CCc2cc(S(=O)(=O)Nc3ccc4c(c3)OCCO4)ccc21,"inconclusive: 12.6 µM [activator, partial curve]"
14,CC(C)C(=O)N1CCN(c2ccccc2NC(=S)NC(=O)c2cccs2)CC1,active: 14.1 µM
15,O=C(NCc1ccccc1)N1CCn2c(nc3ccccc32)C1,"inconclusive: 2 µM [activator, partial curve]"
16,NC(=O)CNC(=O)C1CCCc2c1[nH]c1ccc(Cl)cc21 (centres undefined),"inconclusive: 6.31 µM [activator, single point]"
17,CCSc1nnc(NC(=O)c2ccc3ccccc3n2)s1,active: 1 µM
18,CCN1CCN(Cc2ccc(NC(=O)c3cc(NC(=O)c4cncc(-c5ccc(C#N)cc5)c4)cc(OC)c3)cc2C(F)(F)F)CC1,active: 2.82 µM
19,CCN(CC(=O)NCc1ccc(F)cc1)CC(=O)Nc1ccccc1-c1ccccc1,"inconclusive: 7.08 µM [activator, partial curve]"
20,CCn1c(=O)n(CC)c2cc(S(N)(=O)=O)c(C)cc21,inactive
21,Cc1c(NC(=O)Oc2ccccc2)sc(=S)n1C,inactive
22,CC1=C(CO)C(=O)OC([C@@H](C)C2CC[C@H]3C4C[C@H]5O[C@]56[C@@H](O)C=CC(=O)[C@]6(C)C4CC[C@]23C)C1 (some centres undefined),"inconclusive: 0.891 µM [inhibitor, single point]"
23,Cc1noc(C)c1COC(=O)c1cc(C)n(-c2ccccc2)c1C,"inconclusive: 31.6 µM [activator, single point]"

# Two successive entries out of the list so far, quoted:
row,SMILES,Potency
3,CCN(CCNC(=O)C1CCN(Cc2nc(-c3ccc(Cl)cc3)oc2C)CC1)c1ccccc1,"inconclusive: 22.4 µM [inhibitor, single point]"
4,Fc1ccc(Br)cc1C1C=C(c2ccc(Br)s2)Nc2ncnn21 (centres undefined),active: 35.5 µM

# Reformatted: results already given
row	SMILES	Potency
2	CCC(C(=O)NC1CCCC1)n1nc(C)n2c(cc3occc32)c1=O (centres undefined)	inactive
22	CC1=C(CO)C(=O)OC([C@@H](C)C2CC[C@H]3C4C[C@H]5O[C@]56[C@@H](O)C=CC(=O)[C@]6(C)C4CC[C@]23C)C1 (some centres undefined)	inconclusive: 0.891 µM [inhibitor, single point]
